# In the supplement of paper PMC11732987, “Enantioselective OTUD7B fragment discovery through chemoproteomics screening and high-throughput optimisation” (Communications Chemistry, 2025):
# Protein sequences, listed by entry. Tags and fused reporters are not part of them. Lines headed by an entry give the natural chain unless they say otherwise; changes in a name come on top. Residues count along the entry.
# UniProt Q7L0Y3, 72-95: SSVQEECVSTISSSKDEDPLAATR
# UniProt Q5TAX3: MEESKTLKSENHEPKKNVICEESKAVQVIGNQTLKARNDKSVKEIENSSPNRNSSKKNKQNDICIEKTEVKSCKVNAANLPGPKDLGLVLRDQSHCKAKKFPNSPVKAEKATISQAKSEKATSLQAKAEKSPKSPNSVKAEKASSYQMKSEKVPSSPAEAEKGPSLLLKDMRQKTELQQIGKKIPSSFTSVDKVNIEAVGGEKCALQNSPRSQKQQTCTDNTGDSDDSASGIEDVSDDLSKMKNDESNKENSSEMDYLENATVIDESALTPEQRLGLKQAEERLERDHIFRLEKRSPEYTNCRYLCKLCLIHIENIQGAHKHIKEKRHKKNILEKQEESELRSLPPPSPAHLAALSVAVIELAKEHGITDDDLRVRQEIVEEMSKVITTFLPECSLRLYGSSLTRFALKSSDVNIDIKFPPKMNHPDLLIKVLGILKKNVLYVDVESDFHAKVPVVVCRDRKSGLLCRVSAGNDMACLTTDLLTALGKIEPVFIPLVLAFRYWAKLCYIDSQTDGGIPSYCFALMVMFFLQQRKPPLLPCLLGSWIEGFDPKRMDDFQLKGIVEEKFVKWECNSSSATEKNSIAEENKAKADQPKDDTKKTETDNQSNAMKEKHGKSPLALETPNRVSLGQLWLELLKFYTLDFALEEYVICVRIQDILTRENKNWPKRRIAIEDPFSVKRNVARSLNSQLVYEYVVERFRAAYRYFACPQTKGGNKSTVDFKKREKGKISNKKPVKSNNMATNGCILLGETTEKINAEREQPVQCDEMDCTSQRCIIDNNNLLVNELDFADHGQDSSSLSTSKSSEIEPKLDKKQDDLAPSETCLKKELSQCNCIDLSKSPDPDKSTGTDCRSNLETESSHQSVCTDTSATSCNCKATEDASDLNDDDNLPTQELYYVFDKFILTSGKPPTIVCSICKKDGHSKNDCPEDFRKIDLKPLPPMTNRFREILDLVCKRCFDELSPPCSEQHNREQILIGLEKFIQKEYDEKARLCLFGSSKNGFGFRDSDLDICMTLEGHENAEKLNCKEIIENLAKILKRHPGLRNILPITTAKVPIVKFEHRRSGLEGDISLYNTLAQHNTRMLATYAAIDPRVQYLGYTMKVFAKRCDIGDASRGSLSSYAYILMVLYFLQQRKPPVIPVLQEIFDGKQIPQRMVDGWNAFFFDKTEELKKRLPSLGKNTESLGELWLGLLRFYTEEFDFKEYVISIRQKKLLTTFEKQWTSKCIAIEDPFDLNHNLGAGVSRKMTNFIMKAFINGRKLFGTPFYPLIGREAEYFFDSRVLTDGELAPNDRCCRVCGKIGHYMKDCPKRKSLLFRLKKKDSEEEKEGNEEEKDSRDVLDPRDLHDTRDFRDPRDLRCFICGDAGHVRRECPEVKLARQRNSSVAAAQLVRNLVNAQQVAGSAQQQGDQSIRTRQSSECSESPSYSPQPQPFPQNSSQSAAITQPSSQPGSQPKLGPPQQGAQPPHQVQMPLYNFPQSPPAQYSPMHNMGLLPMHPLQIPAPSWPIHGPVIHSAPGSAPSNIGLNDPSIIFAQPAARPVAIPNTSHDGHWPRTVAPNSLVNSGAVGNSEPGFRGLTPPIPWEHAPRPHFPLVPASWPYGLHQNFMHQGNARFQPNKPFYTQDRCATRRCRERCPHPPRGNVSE
# UniProt Q14679: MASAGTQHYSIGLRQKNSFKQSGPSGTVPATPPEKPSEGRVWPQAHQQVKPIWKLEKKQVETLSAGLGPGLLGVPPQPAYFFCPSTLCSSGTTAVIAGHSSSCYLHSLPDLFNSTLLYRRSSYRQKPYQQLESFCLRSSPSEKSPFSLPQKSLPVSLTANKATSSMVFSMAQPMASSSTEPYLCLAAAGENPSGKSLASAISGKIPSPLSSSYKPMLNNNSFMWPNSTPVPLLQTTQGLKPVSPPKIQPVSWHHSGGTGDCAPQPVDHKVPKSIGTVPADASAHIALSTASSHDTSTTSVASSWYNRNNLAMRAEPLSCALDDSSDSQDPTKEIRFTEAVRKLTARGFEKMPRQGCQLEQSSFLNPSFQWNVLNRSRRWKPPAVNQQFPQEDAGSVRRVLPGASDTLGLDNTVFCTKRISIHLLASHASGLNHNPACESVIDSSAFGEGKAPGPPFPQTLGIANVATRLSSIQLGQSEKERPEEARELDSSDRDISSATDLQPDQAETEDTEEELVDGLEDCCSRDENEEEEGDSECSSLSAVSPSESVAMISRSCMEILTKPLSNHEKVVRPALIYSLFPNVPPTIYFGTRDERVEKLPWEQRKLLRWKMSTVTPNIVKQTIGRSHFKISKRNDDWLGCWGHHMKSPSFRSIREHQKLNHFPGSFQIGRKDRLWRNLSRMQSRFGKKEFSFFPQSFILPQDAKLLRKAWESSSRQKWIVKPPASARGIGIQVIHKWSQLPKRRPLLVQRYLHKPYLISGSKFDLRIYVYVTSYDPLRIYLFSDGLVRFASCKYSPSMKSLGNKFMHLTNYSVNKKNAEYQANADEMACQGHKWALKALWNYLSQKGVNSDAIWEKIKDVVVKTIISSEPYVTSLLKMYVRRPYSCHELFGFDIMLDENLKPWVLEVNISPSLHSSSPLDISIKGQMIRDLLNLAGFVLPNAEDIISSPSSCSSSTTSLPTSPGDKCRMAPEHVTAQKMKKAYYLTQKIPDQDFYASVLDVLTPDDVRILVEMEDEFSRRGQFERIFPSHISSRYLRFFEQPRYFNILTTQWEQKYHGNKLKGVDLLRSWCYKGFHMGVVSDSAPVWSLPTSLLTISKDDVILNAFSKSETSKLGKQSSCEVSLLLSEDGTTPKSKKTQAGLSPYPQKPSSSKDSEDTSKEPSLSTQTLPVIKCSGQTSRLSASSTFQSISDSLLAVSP
# UniProt Q3KQV9, 286-318: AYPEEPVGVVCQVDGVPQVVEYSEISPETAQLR
# UniProt O95155, 141-164: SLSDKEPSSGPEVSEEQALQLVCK
# UniProt Q5VYS8: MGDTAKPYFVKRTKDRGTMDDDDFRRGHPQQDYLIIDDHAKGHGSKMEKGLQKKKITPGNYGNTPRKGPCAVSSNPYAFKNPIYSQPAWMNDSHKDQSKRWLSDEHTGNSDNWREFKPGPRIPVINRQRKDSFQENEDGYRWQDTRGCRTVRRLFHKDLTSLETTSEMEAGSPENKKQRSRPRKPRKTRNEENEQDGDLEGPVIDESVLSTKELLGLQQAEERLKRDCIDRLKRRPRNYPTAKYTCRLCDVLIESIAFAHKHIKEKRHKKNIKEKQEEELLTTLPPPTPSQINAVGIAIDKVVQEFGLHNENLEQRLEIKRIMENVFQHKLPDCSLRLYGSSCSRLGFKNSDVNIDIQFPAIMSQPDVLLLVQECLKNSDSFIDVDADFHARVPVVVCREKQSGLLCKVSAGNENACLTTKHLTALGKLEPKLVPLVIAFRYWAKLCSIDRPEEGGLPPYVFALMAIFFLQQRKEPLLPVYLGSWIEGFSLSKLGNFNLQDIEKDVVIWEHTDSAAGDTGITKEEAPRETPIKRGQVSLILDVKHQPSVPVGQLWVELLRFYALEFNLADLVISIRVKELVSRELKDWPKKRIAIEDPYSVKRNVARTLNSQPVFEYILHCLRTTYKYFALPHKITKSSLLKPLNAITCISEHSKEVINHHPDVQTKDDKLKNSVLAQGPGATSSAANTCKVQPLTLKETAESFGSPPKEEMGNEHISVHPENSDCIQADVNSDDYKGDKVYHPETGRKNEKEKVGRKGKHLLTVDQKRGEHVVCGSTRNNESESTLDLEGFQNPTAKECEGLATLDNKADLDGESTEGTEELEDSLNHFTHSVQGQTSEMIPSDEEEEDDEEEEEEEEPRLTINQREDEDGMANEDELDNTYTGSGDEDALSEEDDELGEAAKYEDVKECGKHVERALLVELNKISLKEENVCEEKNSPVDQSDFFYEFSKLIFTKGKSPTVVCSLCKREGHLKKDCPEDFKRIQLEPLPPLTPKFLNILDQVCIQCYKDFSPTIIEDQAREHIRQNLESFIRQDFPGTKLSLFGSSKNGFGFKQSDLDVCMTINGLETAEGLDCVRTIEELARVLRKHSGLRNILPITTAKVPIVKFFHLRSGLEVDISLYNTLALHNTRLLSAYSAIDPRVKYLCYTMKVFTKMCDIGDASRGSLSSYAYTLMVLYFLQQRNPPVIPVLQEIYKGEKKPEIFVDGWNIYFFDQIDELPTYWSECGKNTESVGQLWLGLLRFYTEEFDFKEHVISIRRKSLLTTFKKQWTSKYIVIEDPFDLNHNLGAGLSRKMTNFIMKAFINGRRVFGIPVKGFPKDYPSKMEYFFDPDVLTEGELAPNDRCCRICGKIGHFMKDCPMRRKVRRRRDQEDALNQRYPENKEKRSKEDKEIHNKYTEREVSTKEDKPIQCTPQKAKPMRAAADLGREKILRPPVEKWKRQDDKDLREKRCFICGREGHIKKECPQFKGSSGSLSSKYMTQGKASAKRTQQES
# UniProt Q6PGP7, whole entry, looked up: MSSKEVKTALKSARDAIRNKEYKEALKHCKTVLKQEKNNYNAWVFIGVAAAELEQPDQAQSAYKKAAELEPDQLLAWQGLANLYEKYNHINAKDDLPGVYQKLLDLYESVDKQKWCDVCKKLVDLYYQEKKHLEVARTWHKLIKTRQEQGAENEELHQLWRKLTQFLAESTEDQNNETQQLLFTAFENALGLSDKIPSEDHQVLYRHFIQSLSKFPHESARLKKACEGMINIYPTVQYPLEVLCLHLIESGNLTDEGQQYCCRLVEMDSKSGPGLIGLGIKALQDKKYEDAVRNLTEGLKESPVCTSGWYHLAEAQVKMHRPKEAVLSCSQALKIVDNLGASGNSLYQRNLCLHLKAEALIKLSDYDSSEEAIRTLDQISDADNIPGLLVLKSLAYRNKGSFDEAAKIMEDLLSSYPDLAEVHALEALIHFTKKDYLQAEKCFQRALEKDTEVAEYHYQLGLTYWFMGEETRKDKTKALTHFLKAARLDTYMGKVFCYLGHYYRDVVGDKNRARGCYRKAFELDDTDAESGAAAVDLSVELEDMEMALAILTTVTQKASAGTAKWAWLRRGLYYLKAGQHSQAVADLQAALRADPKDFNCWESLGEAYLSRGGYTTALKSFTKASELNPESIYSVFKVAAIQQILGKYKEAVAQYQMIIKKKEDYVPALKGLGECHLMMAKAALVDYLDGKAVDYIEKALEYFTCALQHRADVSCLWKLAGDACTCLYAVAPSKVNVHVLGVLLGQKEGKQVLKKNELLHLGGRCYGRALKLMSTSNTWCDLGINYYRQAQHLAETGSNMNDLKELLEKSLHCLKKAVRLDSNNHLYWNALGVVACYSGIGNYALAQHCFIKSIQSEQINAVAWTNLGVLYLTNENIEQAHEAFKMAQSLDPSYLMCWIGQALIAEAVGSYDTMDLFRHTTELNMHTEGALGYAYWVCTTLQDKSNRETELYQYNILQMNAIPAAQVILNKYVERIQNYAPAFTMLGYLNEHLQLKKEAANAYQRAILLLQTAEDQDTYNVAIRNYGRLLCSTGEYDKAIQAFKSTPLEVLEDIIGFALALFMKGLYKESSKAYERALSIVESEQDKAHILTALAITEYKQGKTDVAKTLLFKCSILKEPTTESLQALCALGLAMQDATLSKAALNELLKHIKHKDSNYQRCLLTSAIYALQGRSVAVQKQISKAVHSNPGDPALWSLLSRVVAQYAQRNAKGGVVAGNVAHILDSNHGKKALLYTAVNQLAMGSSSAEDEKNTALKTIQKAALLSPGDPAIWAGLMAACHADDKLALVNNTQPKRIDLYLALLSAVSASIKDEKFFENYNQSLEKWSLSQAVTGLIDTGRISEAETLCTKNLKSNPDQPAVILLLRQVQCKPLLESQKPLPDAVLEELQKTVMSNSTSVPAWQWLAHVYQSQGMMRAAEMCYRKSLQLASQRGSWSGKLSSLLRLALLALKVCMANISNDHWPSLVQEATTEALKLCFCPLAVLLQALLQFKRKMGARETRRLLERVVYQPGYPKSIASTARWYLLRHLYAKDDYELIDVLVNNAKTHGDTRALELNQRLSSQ
# UniProt O95801, 57-80: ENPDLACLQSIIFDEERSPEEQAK
# UniProt P61088: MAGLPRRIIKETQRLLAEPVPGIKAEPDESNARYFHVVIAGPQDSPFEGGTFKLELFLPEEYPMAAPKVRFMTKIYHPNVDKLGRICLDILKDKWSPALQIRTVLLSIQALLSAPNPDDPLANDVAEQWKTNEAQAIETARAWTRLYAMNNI
# UniProt Q96Q11: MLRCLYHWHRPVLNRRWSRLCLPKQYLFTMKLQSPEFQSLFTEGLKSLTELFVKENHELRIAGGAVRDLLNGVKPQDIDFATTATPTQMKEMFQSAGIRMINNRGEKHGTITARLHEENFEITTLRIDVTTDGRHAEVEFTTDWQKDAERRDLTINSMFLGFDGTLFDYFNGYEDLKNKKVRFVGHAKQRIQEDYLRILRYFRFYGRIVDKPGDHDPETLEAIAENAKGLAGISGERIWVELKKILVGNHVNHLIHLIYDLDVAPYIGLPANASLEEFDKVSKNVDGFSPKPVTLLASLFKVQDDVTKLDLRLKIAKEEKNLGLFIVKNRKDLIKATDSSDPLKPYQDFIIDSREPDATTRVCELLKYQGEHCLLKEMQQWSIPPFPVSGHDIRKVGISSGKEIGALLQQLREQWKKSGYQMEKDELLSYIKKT
# The other results are listed elsewhere or left out. The data scatter; read single values as rough.
# Experiments:
# [1] = compound: ClCC(=O)N[C@@H]1CCCc2ccccc12; assay: log2 mean competition ratio of IA-DTB cysteine labelling (DMSO/compound) (log2 ratio); higher = stronger cysteine engagement by compound; conditions: treatment time: 4 h, cell line lysate: HEK293T
# Method: (§1)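 IA-DTB competitive cysteine chemoproteomics in HEK293T RIPA lysate. Lysates were treated with compound 29 or 30 at 50 or 200 µM for 4 h, then IA-DTB (500 µM, 1 h), trypsin-digested, NeutrAvidin-enriched and analysed by diaPASEF. Competition ratio = intensity DMSO / intensity compound (n=4 treated, n=64 DMSO); binding: mean log2 CR ≥ 1 and p ≤ 0.05 plus QC filters. Target is the cysteine site.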
# [2] = compound: ClCC(=O)N[C@H]1CCCc2ccccc12; assay: as above; conditions: treatment time: 4 h, cell line lysate: HEK293T
# Method: as §1
Target,log2 mean competition ratio ([1]; 50 µM),log2 mean competition ratio ([1]; 200 µM),log2 mean competition ratio ([2]; 50 µM),log2 mean competition ratio ([2]; 200 µM)
UBL5 C6 (UniProt Q9BZL1),-0.192,0.0305,0.00622,0.143
TTF2 C1118 (UniProt Q9UNY4),0.00497,0.153,-0.492,0.181
TRMT2A C270 (UniProt Q8IZ69),0.296,0.0046,0.337,0.0592
UBAP2 C10,0.332,0.285,-0.367,0.236
TRRAP C1408 (UniProt Q9Y4A5),0.128,-0.254,0.483,-0.158
TUBG1;TUBG2 C26;(C26),-0.308,-0.0124,-0.569,-0.392
UBR4 C104 (UniProt Q5T4S7),-0.166,0.0736,-0.303,0.0286
TRRAP C620 (UniProt Q9Y4A5),-0.0581,-0.143,0.393,-0.00719
UBE3A C83 (UniProt Q05086),0.18,-0.165,0.212,-0.189
TRMT10C C78 (UniProt Q7L0Y3),-0.342,-0.0685,0.108,-0.281
UBAP2 C104,-0.156,0.299,0.231,0.265
TSPYL4 C117 (UniProt Q9UJ04),-0.193,0.114,-0.131,0.279
TUT4 C302 (UniProt Q5TAX3),-0.0867,-0.0639,-0.166,0.182
TUSC3 C123 (UniProt Q13454),-0.22,-0.335,,-0.332
TTLL4 C829 (UniProt Q14679),-0.00487,0.102,0.102,0.0524
UAP1L1 C296 (UniProt Q3KQV9),0.17,-0.439,0.0434,-0.559
TTC17 C114 (UniProt Q96AE7),0.573,-0.0719,-0.249,0.225
TTF2 C37 (UniProt Q9UNY4),-0.113,0.00591,-0.0191,0.166
UBE4B C829 (UniProt O95155),0.0806,-0.358,-0.228,0.0509
UBR4 C3864 (UniProt Q5T4S7),-0.104,0.0394,-0.152,-0.0897
UBE2O C101,-0.0513,0.17,-0.114,-0.089
UBAC1 C322 (UniProt Q9BSL1),-0.0258,-0.468,-0.146,-0.169
TRMT5 C321 (UniProt Q32P41),0.292,0.0195,-0.108,-0.156
TUT7 C1413 (UniProt Q5VYS8),-0.181,-0.0883,-0.00424,-0.101

# Complete entries as entered above. Order of values: log2 mean competition ratio ([1]; 50 µM)	log2 mean competition ratio ([1]; 200 µM)	log2 mean competition ratio ([2]; 50 µM)	log2 mean competition ratio ([2]; 200 µM)
# UBR4 C104 (UniProt Q5T4S7) as listed: -0.166	0.0736	-0.303	0.0286
# UAP1L1 C296 (UniProt Q3KQV9) as listed: 0.17	-0.439	0.0434	-0.559
# TUBG1;TUBG2 C26;(C26) as listed: -0.308	-0.0124	-0.569	-0.392
# UBAP2 C10 as listed: 0.332	0.285	-0.367	0.236

# Next part

Target,log2 mean competition ratio ([1]; 50 µM),log2 mean competition ratio ([1]; 200 µM),log2 mean competition ratio ([2]; 50 µM),log2 mean competition ratio ([2]; 200 µM)
UBR3 C288 (UniProt Q6ZT12),0.118,0.139,0.131,0.0252
TRPS1 C587 (UniProt Q9UHF7),0.396,0.305,0.17,0.0827
UBE2R2 C191 (UniProt Q712K3),0.0215,-0.106,-0.353,-0.167
TUBGCP6 C615 (UniProt Q96RT7),-0.0529,0.578,-0.143,0.282
TUT7 C800 (UniProt Q5VYS8),0.0448,0.0144,-0.133,0.102
TTC37 C1422 (UniProt Q6PGP7),-0.221,-0.0487,0.128,-0.0411
U2AF1 C163 (UniProt Q01081),-0.105,0.359,0.194,0.433
UBA1 C234 (UniProt P22314),-0.204,0.29,-0.159,0.377
TSC2 C52 (UniProt P49815),-0.0357,0.175,-0.318,0.0182
UBR2 C1360 (UniProt Q8IWV8),0.0105,0.163,-0.355,-0.124
TRRAP C2241 (UniProt Q9Y4A5),-0.111,-0.543,0.184,-0.675
TYK2 C736 (UniProt P29597),-0.0785,-0.0139,0.374,-0.059
TSC2 C791 (UniProt P49815),0.173,0.242,-0.361,-0.241
TTMP C119 (UniProt Q5BVD1),0.0126,0.105,-0.213,-0.247
TTC7A C199 (UniProt Q9ULT0),-0.203,0.0808,-0.0543,-0.0668
UAP1L1 C231 (UniProt Q3KQV9),-0.155,-0.151,0.245,-0.416
TSEN15 C13,-0.254,0.101,-0.0191,-0.00887
TRMT10B C101 (UniProt Q6PF06),0.158,0.274,0.528,-0.0704
UBE4A C202 (UniProt Q14139),0.00446,-0.308,0.00286,-0.111
UBR4 C4946 (UniProt Q5T4S7),-0.125,0.106,-0.324,-0.139
TTI2 C339 (UniProt Q6NXR4),0.0438,-0.0036,-0.103,-0.292
TUT7 C334 (UniProt Q5VYS8),0.218,0.495,-0.32,0.382
TTC4 C63 (UniProt O95801),0.00125,0.0261,-0.355,-0.299
UBN1 C467 (UniProt Q9NPG3),0.0054,0.265,0.0228,0.0228

Target,log2 mean competition ratio ([1]; 50 µM),log2 mean competition ratio ([1]; 200 µM),log2 mean competition ratio ([2]; 50 µM),log2 mean competition ratio ([2]; 200 µM)
TSR3 C208 (UniProt Q9UJK0),-0.268,-0.154,-0.353,-0.0624
TSPAN6 C183 (UniProt O43657),-0.133,-0.17,-0.184,0.195
UBN2 C562 (UniProt Q6ZU65),0.0794,0.403,-0.0856,0.568
UBE2Z C254 (UniProt Q9H832),-0.288,-0.0746,0.223,0.384
UBE3D C330 (UniProt Q7Z6J8),0.298,-0.105,0.633,0.124
TTC37 C305 (UniProt Q6PGP7),0.323,-0.0727,0.285,-0.214
UBE2I C43,0.34,-0.345,0.709,0.0825
TUT4 C1109 (UniProt Q5TAX3),-0.227,0.189,-0.047,0.468
UBE2N C87 (UniProt P61088),0.213,-0.191,-0.118,-0.0852
UBR4 C779 (UniProt Q5T4S7),-0.0151,-0.0444,0.309,0.0292
TRMU C101 (UniProt O75648),-0.138,-0.0795,-0.482,0.183
TRRAP C350 (UniProt Q9Y4A5),0.0763,-0.2,0.582,-0.187
TRRAP C2449 (UniProt Q9Y4A5),0.019,0.0211,0.461,0.131
TUT4 C572 (UniProt Q5TAX3),0.0578,0.00842,-0.095,-0.167
UACA C994 (UniProt Q9BZF9),0.0602,-0.2,-0.108,-0.0434
TSFM C64 (UniProt P43897),0.0559,-0.221,0.11,-0.179
TSEN54 C338 (UniProt Q7Z6J9),0.0222,0.299,0.454,0.565
UBR4 C122 (UniProt Q5T4S7),0.135,-0.254,0.243,-0.29
UBAC1 C47 (UniProt Q9BSL1),0.399,-0.595,0.763,-0.433
UBR1 C477 (UniProt Q8IWV7),-0.122,-0.46,0.0706,-0.343
TWNK C77 (UniProt Q96RR1),0.0574,0.139,-0.146,0.113
TTI2 C185 (UniProt Q6NXR4),0.0487,0.261,0.114,0.145
TSEN2 C265 (UniProt Q8NCE0),0.378,-0.0976,0.213,-0.138
TSFM C315 (UniProt P43897),-0.0544,-0.223,0.343,-0.107

Target,log2 mean competition ratio ([1]; 50 µM),log2 mean competition ratio ([1]; 200 µM),log2 mean competition ratio ([2]; 50 µM),log2 mean competition ratio ([2]; 200 µM)
TSEN54 C58 (UniProt Q7Z6J9),0.0441,-0.0225,-0.302,0.0405
TRNT1 C373 (UniProt Q96Q11),0.291,0.678,0.42,0.716
TXNDC11 C815 (UniProt Q6PKC3),0.00262,-0.0321,0.0782,-0.0234
TRMT6 C492 (UniProt Q9UJA5),-0.171,-0.0643,0.194,0.251
TXNRD2 C168 (UniProt Q9NNW7),-0.0201,0.0193,-0.325,-0.195
TTC37 C1349 (UniProt Q6PGP7),-0.156,-0.0392,-0.0591,0.0739
TUFT1 C267 (UniProt Q9NNX1),-0.288,-0.114,0.0162,-0.135
UACA C125 (UniProt Q9BZF9),0.123,-0.178,-0.213,-0.17
TRMT2A C538 (UniProt Q8IZ69),-0.482,-0.265,-0.226,-0.168
TRMT13 C59 (UniProt Q9NUP7),-0.0999,-0.0569,0.321,0.248
TTC31 C107,0.11,0.139,0.128,0.112
TUBGCP3 C274 (UniProt Q96CW5),-0.0407,0.00287,-0.29,-0.0938
TSPAN2 C164,-0.159,-0.0842,-0.369,0.26
UAP1 C293 (UniProt Q16222),-0.249,-0.0487,-0.129,-0.116
TRUB1 C269 (UniProt Q8WWH5),0.0984,-0.147,0.37,-0.146
UBE4B C163 (UniProt O95155),-0.247,-0.249,0.162,-0.0431
UBE3B C75 (UniProt Q7Z3V4),0.201,0.321,-0.12,0.15
UBE2E3;UBE2E2 C81;(C75),-0.46,-0.3,0.067,-0.172
TUT4 C458 (UniProt Q5TAX3),0.106,0.0253,0.461,0.0153
TTC21B C187 (UniProt Q7Z4L5),-0.148,0.257,0.292,0.202
TRMT10A C37 (UniProt Q8TBZ6),-0.0933,-0.0595,-0.259,-0.0549
UBA3 C28 (UniProt Q8TBC4),0.303,0.209,0.677,0.136
UBAP1 C81 (UniProt Q9NZ09),-0.26,0.229,-0.038,0.571
UBE2Z C100 (UniProt Q9H832),-0.0257,-0.362,0.591,-0.318
